This note sets out measurements from PubChem BioAssay AID2685 (National Center for Advancing Translational Sciences (NCATS), 2010).

What is called AC50 is the concentration at which the activity in the assay is half-maximal. A higher AC50 goes with weaker potency.

The nature of the assay: qHTS Assay for Lipid Storage Modulators in Drosophila S3 Cells.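 On cell number change: cells counted by Cell Tracker Red CMTPX staining in the red channel.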 The conditions noted are these: BODIPY lipid droplet fluorescence, 18-24 h; for cell number change: measured here: cell count max response, cells fed with added oleic acid. Put shortly:
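Laser-scanning cytometry quantifies lipid droplet accumulation (500–530 nm total intensity; droplet/cell object ratio) in oleic acid-fed (400 uM added) Drosophila S3 cells treated with a concentration series. 20 uM Triacsin C defined 100% inhibition.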
(In general: qHTS replaces the single test concentration by a dilution series.)

[1] abbreviates: measured here: cell number channel AC50, cells fed with added oleic acid.
[2] abbreviates: measured here: lipid fluorescence (Fed channel) AC50, cells fed with added oleic acid.

Structures are written as SMILES. The list shows a part of the results. Shown are side measurements of this screen, not its main read-out; they come without a call. Compounds called inactive in the main read-out are mostly missing here. The note in brackets gives the kind of curve behind each potency; many fits are weak.

`CC(=O)Nc1ccc(NC(=O)C(C)OC(=O)c2ccc(N(C)C)cc2)cc1` (stereo unspecified): the cell number change amounted to 21%. Moreover, the AC50 under setting [1] is 0.82 µM [rising, full curve]. Under setting [2], the AC50 is 6.51 µM [falling, single point].

On to `O=C(NCCCN1CCOCC1)c1cc(S(=O)(=O)N2CCN(c3ccccc3)CC2)ccc1Cl`, for which the cell number change came out at 27.7%.

Regarding `C/C(CC(=O)Nc1cccc2c1CCCC2)=N\NC=O`, the cell number change is -10.7%. Besides, the AC50 under setting [1] is 0.164 µM [falling, full curve]. Moreover, the AC50 under setting [2] is 0.103 µM [falling, full curve].

On to `CC(C)=CC(=O)OCC(=O)Nc1ncc(Cl)c(C)c1Cl`, for which the cell number change was determined as 24.2%. Also, the AC50 under setting [2] was 16.4 µM [rising, partial curve, poor fit].

Turning to `Cc1cccn2c(=O)c3cc(C#N)c(=O)n(-c4c(C)n(C)n(-c5ccccc5)c4=O)c3nc12`, the cell number change was 7.64%.

In the case of `O=C(COc1ccc(Cl)cc1Cl)N(C1CCCCC1)C1CCS(=O)(=O)C1` (stereo unspecified), the cell number change was -38.3%. Moreover, the AC50 under setting [1] was 9.2 µM [falling, partial curve].

On to `O=C(Nc1ccc2c(c1)OCCO2)c1coc2ccccc2c1=O`, for which the cell number change was determined as 15.3%. For the same compound, under setting [2], the AC50 is 29.1 µM [rising, single point].

With `Cc1[nH]c2ccc(C(=O)N3CCN(C)CC3)cc2c1C`, the cell number change was found to be 18.3%.

Take `COc1ccc(C2=CSC3=NCCN23)cc1F`: the cell number change worked out at 33.1%. Besides, the AC50 under setting [1] is 9.2 µM [rising, partial curve].

Turning to `Cc1cccc(N(C(=O)Cc2cccs2)C(C(=O)NCc2ccco2)c2ccncc2)c1` (stereo unspecified), the cell number change was -18.9%. Further, under setting [2], the AC50 was 14.6 µM [falling, partial curve].

Regarding `COc1ccc(C(=O)CC(=O)c2ccccc2O)cc1`, the cell number change was -25.2%. Also, the AC50 under setting [2] was 23.1 µM [falling, single point].

For the compound `CCNc1nc(NCC)n2c(SCC(=O)Nc3ccc(NC(C)=O)cc3)nnc2n1`, the cell number change is -21.3%. Also, the concentration at half-maximal activity (AC50) under setting [2] is 3.26 µM [falling, single point].

`COc1ccc(-n2c(=O)c3c(C)c(C)sc3n(Cc3ccc(F)cc3)c2=O)c(OC)c1`: the cell number change is -12.3%. Also, under setting [2], the AC50 was 2.91 µM [falling, partial curve].

As for `CC(=O)c1c(C)c(C)c2n1CCn1c(C)ccc1-2`, the cell number change was found to be 11.3%. In addition, the AC50 under setting [2] was 0.461 µM [rising, full curve].

Regarding `CCOC(=O)c1ccccc1NC(=O)COC(=O)C(Cc1c[nH]c2ccccc12)NC(C)=O` (stereo unspecified), the cell number change was -1.39%.

For the compound `O=C(OCCCCOC(=O)c1ccccc1)c1ccccc1`, the cell number change amounted to 22.4%. Besides, the AC50 under setting [2] is 29.1 µM [rising, single point].

Regarding `Cc1c(C(=O)NCc2ccc(S(N)(=O)=O)cc2)oc2ccc(Cl)cc12`, the cell number change is -33.2%. In addition, the AC50 under setting [1] is 3.98 µM [falling, full curve, poor fit]. Under setting [2], the AC50 was 11.2 µM [falling, partial curve].

Regarding `CC1CC(C)CN(C(=O)CCCn2c(=O)c3cccn3c3cccnc32)C1` (stereo unspecified), the cell number change came to 3.54%. The AC50 under setting [2] was 5.17 µM [falling, single point].

On to `COc1cccc(C(=O)Oc2cc3c4c(c2)C(C)=CC(C)(C)N4C(=O)C3=O)c1`, for which the cell number change is -20.2%. Besides, under setting [2], the AC50 was 23.1 µM [falling, partial curve].

In the case of `CC(C)c1cc(-c2cc(-c3ccc(Cl)cc3)on2)nc(NC2CCCC2)n1`, the cell number change turned out to be 16.6%. Moreover, the concentration at half-maximal activity (AC50) under setting [2] is 16.4 µM [rising, partial curve].

For the compound `CCc1ccc(NC(=S)N(CCCN2CCOCC2)Cc2ccccn2)cc1`, the cell number change is -39.3%. Besides, the AC50 under setting [1] was 25.9 µM [falling, single point]. Besides, the AC50 under setting [2] was 29.1 µM [falling, single point].

On to `O=c1[nH]nc2n1CCCCC2`, for which the cell number change is -8.38%. For the same compound, the concentration at half-maximal activity (AC50) under setting [2] is 25.9 µM [falling, single point].

For the compound `O=[N+]([O-])c1ccccc1OCCN1CCCC1`, the cell number change is -2.21%.

`Cc1ccc(-c2ccc(/C=C3/NC(=O)NC3=O)o2)cc1[N+](=O)[O-]`: the cell number change was -19.7%.

As to `S=C(NCc1ccc2c(c1)OCO2)NC1CC1`, the cell number change worked out at 33.7%. For the same compound, under setting [1], the AC50 is 31.6 µM [rising, single point]. Also, the AC50 under setting [2] was 31.6 µM [rising, single point].

In the case of `O=C(c1cc2ccccc2o1)c1nc2c(n1O)CCCCC2`, the cell number change is -6.68%. Moreover, under setting [2], the AC50 was 16.4 µM [rising, single point].

With `COc1ccc2ccccc2c1/C=N/N1C(=O)CSC1=S`, the AC50 under setting [1] is 0.116 µM [rising, full curve, poor fit].

On to `COCCCn1c(=S)[nH]c2sc3c(c2c1=O)CCCC3`, for which the cell number change was 18.3%. Moreover, the AC50 under setting [2] is 29.1 µM [rising, single point].

For `COc1ccccc1OCC(=O)NCC(c1cccs1)N1CCOCC1` (stereo unspecified), the cell number change stood at 24.7%. Moreover, under setting [2], the half-maximal activity concentration (AC50) was 12.6 µM [rising, partial curve, poor fit].

`O=C(Nc1ccc(Br)cn1)c1ccc(Br)s1`: the cell number change is 24.3%. Under setting [2], the AC50 was 0.13 µM [falling, full curve, poor fit].

In the case of `COc1ccc(CNC(=O)[C@H](C)NC(=O)C2CCN(S(=O)(=O)c3ccccc3)CC2)cc1`, the cell number change is -10.3%. The half-maximal activity concentration (AC50) under setting [2] is 2.91 µM [rising, single point].

As for `CCOc1ccc(C(=O)C(CCC(CN(C)C)C(=O)c2ccc(OCC)cc2)CN(C)C)cc1` (stereo unspecified), the cell number change was -62.6%. Further, the AC50 under setting [1] was 25.9 µM [falling, partial curve]. In addition, the AC50 under setting [2] was 23.1 µM [falling, partial curve, poor fit].

In the case of `Cc1cc(C)cc(NC(=O)NCC2CCN(Cc3cc(C)ccc3C)CC2)c1`, the cell number change is 20.8%.

For the compound `COc1ccc2cc(C3=CC(=O)C[C@H](c4ccc5c(c4)OCO5)C3)ccc2c1`, the cell number change was -24.7%. For the same compound, the AC50 under setting [2] is 0.164 µM [rising, partial curve].

On to `Cc1cc2nc3c(nc2cc1C)CCCC3`, for which the cell number change is 18.5%. Also, the AC50 under setting [2] is 11.6 µM [rising, partial curve, poor fit].

With `COC(=O)C(NC(C)=O)(Nc1ccc(Br)cc1)C(=O)OC`, the cell number change worked out at 2.31%.

In the case of `COCCCNC(=O)c1c(N)n(/N=C/c2ccccn2)c2nc3ccccc3nc12`, the AC50 under setting [2] was 2.06 µM [falling, partial curve].

Turning to `COC(=O)c1cccc(N(CC(=O)NC2CCCC2)C(=O)CCC(=O)Nc2cc(C)on2)c1`, the cell number change is 11.7%. Also, under setting [2], the concentration at half-maximal activity (AC50) was 6.51 µM [falling, single point].

In the case of `N#Cc1cc(-c2ccccc2)nc(Oc2ccccc2)n1`, the cell number change is -18.5%.

On to `O=c1cc(-c2ccc(O)c(O)c2)oc2c1ccc1ccccc12`, for which the cell number change was -32%. Also, under setting [1], the AC50 is 23.1 µM [falling, partial curve]. Moreover, the AC50 under setting [2] was 29.1 µM [falling, partial curve, poor fit].
